Drawing on paper PMC8744458 (Beilstein Journal of Organic Chemistry, 2022), this text covers isolated yield and isolated mass for 7 substances.

This data set can be described thus: general procedure: Fmoc solid-phase peptide synthesis; Rink Amide AM; TBTU, HATU. As to conditions: whole synthesis; for isolated yield: overall, referring to initial resin loading.

Strings that start with PEPTIDE1 are HELM notation: dots part the residues, brackets hold end groups and non-standard residues.

As to “PEPTIDE1{[ac].E.N.P.E.W.I.L.D.K.H.V.Q.R.V.M.[am]}$$$$V2.0”, under “scale 33 µmol”, the isolated yield was 24% and the isolated mass stood at 17.1 mg.
For “PEPTIDE1{[FITC].[bAla].E.N.P.E.[S5].I.L.D.[S5].H.V.Q.R.V.M.[am]}$PEPTIDE1,PEPTIDE1,7:R3-11:R3$$$V2.0”, where the note is “scale 50 µmol”, the isolated yield is reported as 29% and the isolated mass turned out to be 35.0 mg.
Under “scale 100 µmol”, “PEPTIDE1{[ac].E.N.P.E.S.I.L.D.E.H.V.Q.R.V.M.[am]}$$$$V2.0” returned an isolated yield of 5% and an isolated mass of 9.0 mg.
Where the note is “scale 50 µmol”, “PEPTIDE1{[ac].E.N.P.E.[Trp7].I.L.D.[Phe4].H.V.Q.R.V.M.[am]}$PEPTIDE1,PEPTIDE1,6:R3-10:R3$$$V2.0” returned an isolated yield of 3% and an isolated mass of 3.5 mg.
The matching figures for “PEPTIDE1{[ac].E.N.P.E.[Trp6].I.L.D.[Phe4].H.V.Q.R.V.M.[am]}$PEPTIDE1,PEPTIDE1,6:R3-10:R3$$$V2.0”: 4% and 3.8 mg.
Where the note is “scale 33 µmol”, “PEPTIDE1{[FITC].[bAla].E.N.P.E.S.I.L.D.E.H.V.Q.R.V.M.[am]}$$$$V2.0” showed an isolated yield of 55% and an isolated mass of 43.3 mg.
With “PEPTIDE1{[ac].E.N.P.E.[S5].I.L.D.[S5].H.V.Q.R.V.M.[am]}$PEPTIDE1,PEPTIDE1,6:R3-10:R3$$$V2.0”, for the setting “scale 50 µmol”, the isolated yield is given as 31% and the isolated mass was determined as 30.6 mg.
